Article PMC11258688
No constants are given. Whether binding was seen depends on the method and setting. Some results given as binding are weak or reduced against the parent protein; the word gives no strength.

The chains behind the UniProt entries cited, without tags or fusion partners. Residues count along the entry.
UniProt P05067, residues 672-711: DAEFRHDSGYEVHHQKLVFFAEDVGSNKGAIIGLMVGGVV

Biological target: Aβ40 (β-amyloid peptide 1-40), as fibrils P2′ and P2″ grown from monomer with P1 seeds and αBC, and as mature P2 fibrils (UniProt P05067)
Assay: co-sedimentation; Aβ40 fibrils grown from 50 μM monomeric Aβ40 with 5% P1 seeds and 5 μM (P2′) or 25 μM (P2″) αBC; one round of sedimentation; αBC found with the fibrils (Figure S1E); both purified

B1: small heat shock protein αB-Crystallin (protein, UniProt P02511 1-175)
chain: MDIAIHHPWIRRPFFPFHSPSRLFDQFFGEHLLESDLFPTSTSLSPFYLRPPSFLRAPSWFDTGLSEMRLEKDRFSVNLDVKHFSPEELKVKVLGDVIEVHGKHEERQDEHGFISREFHRKYRIPADVDPLTITSSLSSDGVLTVNGPRKQVSGPERTIPITREEKPAVTAAPKK
For B1, the binding was “binds”.
